{"source": "patent US7615361B2", "about": "“Toxicity screening methods” (Ceetox, Inc., priority 2006, dated 2009)", "key": {"H4IIE cells": {"tested_on": "H4IIE cells", "test": "Intracellular total glutathione (GSH)", "assay_type": "cell-based, rat", "details": "24 HR, decrease indicated by (−)", "method": "(§1) One test compound (Compound A) was received as dry powder and evaluated for potential cytotoxicity in a battery of in vitro assays. The compound was tested using both rat cardiomyocytes (CM) from rat neonates and a rat hepatoma (H4IIE) cell line. […] The cell supernatant or the cells themselves were harvested for biochemical analysis. General cytotoxicity was evaluated by monitoring membrane integrity, mitochondrial function, cell proliferation, oxidative stress, and apoptosis. In addition, interaction with P-glycoprotein (PgP) on H4IIE cells and solubility of the test compound were also assessed. The means of each exposure group (n=3-7) were calculated for each assay performed.\nExperimental Protocol: The test compound was provided and stored at 4° C. until needed. Dosing solutions were prepared in complete culture medium. The rat hepatoma (H4IIE) cell line was used as the test system."}, "rat cardiomyocytes": {"tested_on": "rat cardiomyocytes", "test": "Intracellular total glutathione (GSH)", "assay_type": "cell-based", "details": "CM, 24 HR; decrease indicated by (−)", "method": "as §1"}}, "note": "At least one read-out could not be matched to a standard name with certainty.", "data": [{"smiles": "COc1cccc2c1C(=O)c1c(O)c3c(c(O)c1C2=O)C[C@@](O)(C(C)=O)C[C@@H]3O[C@H]1C[C@H](N)[C@H](O)[C@H](C)O1", "note": "[DAUNORUBICIN, daunorubicin]", "values": [{"measurement": "Percent Change in Total GSH", "setting": "H4IIE cells", "result": "−99.3", "unit": "%"}, {"measurement": "Percent Change in Total GSH", "setting": "rat cardiomyocytes", "result": "−100.0", "unit": "%"}]}, {"smiles": "C=C(C)[C@H]1Cc2c(ccc3c2O[C@@H]2COc4cc(OC)c(OC)cc4[C@@H]2C3=O)O1", "note": "[ROTENONE, Rotenone]", "values": [{"measurement": "Percent Change in Total GSH", "setting": "H4IIE cells", "result": "−100.0", "unit": "%"}, {"measurement": "Percent Change in Total GSH", "setting": "rat cardiomyocytes", "result": "−80.8", "unit": "%"}]}]}
